From PMC8212739 (Clinical and Translational Science, 2021) come the findings set out here.

Format in all cases: cell-based
For experiment [1], the system named is PHHs in liver MPS. Put plainly: LDH production, hepatotoxicant sensitivity, liver MPS. The settings on record: Homo sapiens, 48 h, read-out: EC50, LDH production.
Experiment [2] has as its system PHHs in liver MPS. The experiment in a line: Albumin production, hepatotoxicant sensitivity, liver MPS. The settings on record: Homo sapiens, 48 h, read-out: EC50, albumin secretion.
Experiment [3] has as its system PHHs in sandwich cultures. The experiment in a line: LDH production, hepatotoxicant sensitivity, sandwich cultures. To be noted: Homo sapiens, 48 h, read-out: EC50, LDH production.
The next experiment has as its system PHHs in spheroids. The experiment in a line: LDH production, hepatotoxicant sensitivity, spheroids. To be noted: Homo sapiens, 48 h, read-out: EC50, LDH production.

Take `CC/C(=C(\c1ccccc1)c1ccc(OCCN(C)C)cc1)c1ccccc1` [Tamoxifen, tamoxifen]: the EC50 stood at 41.3 µM in the experiment on PHHs in liver MPS [1], 37.7 µM in the experiment on PHHs in liver MPS [2], 53.2 µM in experiment [3] and 18.3 µM in the experiment with PHHs in spheroids.

In general, EC50 refers to the concentration that produces a half-maximal response.
